Data: PMC4267665
No constants are given. Whether binding was seen depends on the method and setting. Binding seen in cells or lysates may run through a third protein. Some entries that bind do so weakly or less than the wild type.

Target: SETDB1 (mouse) (mouse (endogenous in NIH3T3 and embryonic fibroblasts)) (UniProt O88974)
Assay: co-IP; 10 ug anti-SETDB1 antibody with 100 ug whole cell extract overnight at 4°C, protein A or A/G beads, western blot; lysis buffer 0.5% NP-40, 50 mM Tris-Cl, 10% glycerol, 0.1 M EDTA, 15 mM NaCl; NIH3T3, mEF and T47D cells; T47D lysates with or without NEM, before or after agRNA transfection

AGO2 (mouse) (from UniProt Q8CJG0 1-860)
binding: binds
